The supplement of paper PMC10849652
The list shows a part of the results. Residues, ends and D or L forms follow the SMILES beside them. *: point of attachment. Cbz = O=C(OCc1ccccc1)*

By UniProt entry, the sequences of proteins in these tests, tags left out. Where a name states a change or a piece, a line headed by the entry shows the natural chain unless it says otherwise.
UniProt Q96EK9: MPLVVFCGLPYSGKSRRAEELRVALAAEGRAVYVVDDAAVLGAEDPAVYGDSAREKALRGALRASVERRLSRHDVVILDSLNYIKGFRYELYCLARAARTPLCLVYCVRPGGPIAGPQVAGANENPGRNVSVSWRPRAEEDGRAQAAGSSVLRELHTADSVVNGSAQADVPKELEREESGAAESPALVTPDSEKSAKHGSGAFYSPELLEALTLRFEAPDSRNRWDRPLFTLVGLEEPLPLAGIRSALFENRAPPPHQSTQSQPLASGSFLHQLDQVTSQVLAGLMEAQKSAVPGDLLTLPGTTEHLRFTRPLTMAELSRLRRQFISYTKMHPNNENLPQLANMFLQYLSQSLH
UniProt Q03252: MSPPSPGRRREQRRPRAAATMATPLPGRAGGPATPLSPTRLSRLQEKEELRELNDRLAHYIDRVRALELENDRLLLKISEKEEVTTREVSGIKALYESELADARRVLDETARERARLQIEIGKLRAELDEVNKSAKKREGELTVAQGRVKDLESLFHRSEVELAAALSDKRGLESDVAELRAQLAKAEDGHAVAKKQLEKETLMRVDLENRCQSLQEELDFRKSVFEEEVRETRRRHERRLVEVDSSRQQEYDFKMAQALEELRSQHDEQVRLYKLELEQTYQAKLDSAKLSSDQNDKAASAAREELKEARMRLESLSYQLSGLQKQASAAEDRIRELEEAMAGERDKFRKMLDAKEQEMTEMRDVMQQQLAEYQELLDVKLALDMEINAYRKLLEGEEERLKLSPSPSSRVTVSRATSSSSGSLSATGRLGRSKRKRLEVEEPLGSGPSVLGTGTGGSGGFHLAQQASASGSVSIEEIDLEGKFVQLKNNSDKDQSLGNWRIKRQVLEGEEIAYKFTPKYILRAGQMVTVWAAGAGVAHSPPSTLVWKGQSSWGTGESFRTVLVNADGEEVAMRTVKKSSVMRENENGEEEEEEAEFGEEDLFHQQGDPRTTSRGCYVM
UniProt Q68DH5: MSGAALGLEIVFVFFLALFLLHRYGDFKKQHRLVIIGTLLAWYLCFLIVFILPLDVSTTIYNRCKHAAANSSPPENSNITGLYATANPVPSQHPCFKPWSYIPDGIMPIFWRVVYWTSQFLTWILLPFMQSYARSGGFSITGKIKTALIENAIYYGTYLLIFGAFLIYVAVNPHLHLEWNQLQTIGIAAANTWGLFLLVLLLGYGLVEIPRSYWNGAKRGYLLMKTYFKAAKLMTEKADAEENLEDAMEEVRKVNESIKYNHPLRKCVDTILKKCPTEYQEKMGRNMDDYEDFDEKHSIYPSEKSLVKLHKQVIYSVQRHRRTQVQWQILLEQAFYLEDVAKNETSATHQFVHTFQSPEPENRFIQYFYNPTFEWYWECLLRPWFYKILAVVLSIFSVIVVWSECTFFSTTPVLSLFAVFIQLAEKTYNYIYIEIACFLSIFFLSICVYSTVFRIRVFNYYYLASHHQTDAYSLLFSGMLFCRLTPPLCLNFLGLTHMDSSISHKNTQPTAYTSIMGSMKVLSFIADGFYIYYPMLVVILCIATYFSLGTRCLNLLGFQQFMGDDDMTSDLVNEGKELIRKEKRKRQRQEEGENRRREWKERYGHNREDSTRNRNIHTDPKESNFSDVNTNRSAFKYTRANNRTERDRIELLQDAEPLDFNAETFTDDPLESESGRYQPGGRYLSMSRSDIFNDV
UniProt Q13094: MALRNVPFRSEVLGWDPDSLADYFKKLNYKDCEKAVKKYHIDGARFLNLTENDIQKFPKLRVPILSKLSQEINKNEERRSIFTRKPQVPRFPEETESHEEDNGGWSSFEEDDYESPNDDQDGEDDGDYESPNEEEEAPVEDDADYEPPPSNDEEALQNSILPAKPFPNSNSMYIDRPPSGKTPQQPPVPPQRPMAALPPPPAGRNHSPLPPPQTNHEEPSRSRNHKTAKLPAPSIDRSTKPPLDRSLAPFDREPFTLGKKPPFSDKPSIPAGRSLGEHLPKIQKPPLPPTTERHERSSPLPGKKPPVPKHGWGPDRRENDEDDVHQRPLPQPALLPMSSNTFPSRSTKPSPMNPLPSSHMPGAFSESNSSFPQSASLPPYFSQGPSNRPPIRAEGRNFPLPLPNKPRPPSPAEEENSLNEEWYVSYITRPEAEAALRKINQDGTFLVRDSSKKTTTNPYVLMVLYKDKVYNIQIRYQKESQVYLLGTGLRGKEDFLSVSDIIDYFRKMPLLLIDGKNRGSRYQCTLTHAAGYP
UniProt Q16719: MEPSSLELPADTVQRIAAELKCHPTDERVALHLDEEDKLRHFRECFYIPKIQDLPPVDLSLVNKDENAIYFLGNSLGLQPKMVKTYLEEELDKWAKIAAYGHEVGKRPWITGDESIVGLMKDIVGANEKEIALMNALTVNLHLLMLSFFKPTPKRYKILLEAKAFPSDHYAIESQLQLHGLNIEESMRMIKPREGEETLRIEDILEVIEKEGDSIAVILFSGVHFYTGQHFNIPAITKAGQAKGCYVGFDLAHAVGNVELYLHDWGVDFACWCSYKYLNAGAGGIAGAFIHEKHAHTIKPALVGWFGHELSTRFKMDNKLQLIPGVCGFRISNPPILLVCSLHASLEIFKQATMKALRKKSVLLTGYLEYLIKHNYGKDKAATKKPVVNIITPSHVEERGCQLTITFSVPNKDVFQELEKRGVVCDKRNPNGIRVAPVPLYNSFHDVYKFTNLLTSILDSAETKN
UniProt P50851: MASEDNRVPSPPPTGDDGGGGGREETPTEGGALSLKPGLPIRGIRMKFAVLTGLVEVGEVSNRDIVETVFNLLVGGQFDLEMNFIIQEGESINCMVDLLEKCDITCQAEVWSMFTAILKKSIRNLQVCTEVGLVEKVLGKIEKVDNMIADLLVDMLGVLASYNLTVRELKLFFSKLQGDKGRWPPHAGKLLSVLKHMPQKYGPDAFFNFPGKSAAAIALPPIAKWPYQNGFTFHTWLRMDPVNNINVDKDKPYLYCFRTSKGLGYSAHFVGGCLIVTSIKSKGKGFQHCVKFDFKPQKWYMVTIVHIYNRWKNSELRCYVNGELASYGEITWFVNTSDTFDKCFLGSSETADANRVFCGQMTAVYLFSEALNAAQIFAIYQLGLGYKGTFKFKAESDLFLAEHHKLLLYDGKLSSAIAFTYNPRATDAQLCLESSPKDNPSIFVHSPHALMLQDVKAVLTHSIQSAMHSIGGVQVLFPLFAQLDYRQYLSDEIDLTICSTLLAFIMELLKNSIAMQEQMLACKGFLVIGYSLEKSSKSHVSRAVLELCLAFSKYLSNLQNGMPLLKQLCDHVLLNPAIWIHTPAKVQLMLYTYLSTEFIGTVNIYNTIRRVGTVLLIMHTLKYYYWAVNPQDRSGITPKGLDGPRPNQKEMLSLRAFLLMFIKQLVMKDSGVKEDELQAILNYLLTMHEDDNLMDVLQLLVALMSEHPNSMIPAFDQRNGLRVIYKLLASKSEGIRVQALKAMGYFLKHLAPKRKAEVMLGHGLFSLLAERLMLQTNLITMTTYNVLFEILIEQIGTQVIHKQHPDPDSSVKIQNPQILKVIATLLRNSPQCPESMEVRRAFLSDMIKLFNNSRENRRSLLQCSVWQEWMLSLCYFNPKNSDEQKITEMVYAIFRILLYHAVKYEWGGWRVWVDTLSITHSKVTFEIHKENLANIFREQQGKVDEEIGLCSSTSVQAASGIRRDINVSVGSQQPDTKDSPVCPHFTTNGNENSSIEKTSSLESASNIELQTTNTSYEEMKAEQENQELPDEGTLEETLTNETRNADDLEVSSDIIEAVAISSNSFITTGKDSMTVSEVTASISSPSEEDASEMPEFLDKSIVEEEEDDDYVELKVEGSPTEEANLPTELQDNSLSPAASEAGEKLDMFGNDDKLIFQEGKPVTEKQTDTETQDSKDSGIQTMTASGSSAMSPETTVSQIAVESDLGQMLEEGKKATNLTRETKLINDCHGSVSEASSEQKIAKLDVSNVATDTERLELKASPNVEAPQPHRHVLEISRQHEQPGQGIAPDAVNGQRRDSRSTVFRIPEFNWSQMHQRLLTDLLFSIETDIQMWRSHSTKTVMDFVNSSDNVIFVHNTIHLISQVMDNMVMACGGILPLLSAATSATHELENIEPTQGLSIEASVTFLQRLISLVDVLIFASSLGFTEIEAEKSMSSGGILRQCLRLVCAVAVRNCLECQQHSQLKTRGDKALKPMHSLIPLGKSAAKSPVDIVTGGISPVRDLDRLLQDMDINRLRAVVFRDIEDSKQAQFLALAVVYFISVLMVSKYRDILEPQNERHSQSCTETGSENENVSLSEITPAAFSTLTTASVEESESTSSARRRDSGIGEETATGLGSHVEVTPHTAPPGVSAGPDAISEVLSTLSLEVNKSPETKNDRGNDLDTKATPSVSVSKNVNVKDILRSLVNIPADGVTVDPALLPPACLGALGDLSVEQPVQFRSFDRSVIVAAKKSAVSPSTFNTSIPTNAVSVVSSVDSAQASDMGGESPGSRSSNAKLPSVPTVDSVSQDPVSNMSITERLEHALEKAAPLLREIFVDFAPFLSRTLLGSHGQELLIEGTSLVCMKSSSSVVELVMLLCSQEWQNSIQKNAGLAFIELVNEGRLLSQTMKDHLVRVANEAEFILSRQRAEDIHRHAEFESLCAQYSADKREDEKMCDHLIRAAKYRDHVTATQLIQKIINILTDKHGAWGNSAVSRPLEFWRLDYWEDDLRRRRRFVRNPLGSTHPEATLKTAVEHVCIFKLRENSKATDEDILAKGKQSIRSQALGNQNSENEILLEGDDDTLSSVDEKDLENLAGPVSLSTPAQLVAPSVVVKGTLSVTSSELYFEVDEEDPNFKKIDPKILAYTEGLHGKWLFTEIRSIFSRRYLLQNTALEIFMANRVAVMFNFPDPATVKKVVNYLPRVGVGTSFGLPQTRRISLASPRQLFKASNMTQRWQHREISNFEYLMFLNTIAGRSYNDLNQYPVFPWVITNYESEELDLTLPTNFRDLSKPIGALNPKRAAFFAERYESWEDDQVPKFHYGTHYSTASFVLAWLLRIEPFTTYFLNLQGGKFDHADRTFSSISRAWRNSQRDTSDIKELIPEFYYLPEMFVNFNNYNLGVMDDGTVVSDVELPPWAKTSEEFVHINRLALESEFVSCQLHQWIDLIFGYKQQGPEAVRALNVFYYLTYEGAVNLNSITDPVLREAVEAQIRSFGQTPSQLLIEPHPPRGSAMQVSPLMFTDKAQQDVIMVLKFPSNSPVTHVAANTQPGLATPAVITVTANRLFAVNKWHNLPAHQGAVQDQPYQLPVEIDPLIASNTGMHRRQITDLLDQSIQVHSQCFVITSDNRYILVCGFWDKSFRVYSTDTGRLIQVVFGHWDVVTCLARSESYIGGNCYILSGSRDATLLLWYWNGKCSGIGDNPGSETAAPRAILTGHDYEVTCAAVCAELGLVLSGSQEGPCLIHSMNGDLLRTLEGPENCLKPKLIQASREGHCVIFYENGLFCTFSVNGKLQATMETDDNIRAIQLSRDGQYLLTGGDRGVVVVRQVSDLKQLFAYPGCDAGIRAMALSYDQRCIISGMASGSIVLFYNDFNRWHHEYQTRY
UniProt P01130: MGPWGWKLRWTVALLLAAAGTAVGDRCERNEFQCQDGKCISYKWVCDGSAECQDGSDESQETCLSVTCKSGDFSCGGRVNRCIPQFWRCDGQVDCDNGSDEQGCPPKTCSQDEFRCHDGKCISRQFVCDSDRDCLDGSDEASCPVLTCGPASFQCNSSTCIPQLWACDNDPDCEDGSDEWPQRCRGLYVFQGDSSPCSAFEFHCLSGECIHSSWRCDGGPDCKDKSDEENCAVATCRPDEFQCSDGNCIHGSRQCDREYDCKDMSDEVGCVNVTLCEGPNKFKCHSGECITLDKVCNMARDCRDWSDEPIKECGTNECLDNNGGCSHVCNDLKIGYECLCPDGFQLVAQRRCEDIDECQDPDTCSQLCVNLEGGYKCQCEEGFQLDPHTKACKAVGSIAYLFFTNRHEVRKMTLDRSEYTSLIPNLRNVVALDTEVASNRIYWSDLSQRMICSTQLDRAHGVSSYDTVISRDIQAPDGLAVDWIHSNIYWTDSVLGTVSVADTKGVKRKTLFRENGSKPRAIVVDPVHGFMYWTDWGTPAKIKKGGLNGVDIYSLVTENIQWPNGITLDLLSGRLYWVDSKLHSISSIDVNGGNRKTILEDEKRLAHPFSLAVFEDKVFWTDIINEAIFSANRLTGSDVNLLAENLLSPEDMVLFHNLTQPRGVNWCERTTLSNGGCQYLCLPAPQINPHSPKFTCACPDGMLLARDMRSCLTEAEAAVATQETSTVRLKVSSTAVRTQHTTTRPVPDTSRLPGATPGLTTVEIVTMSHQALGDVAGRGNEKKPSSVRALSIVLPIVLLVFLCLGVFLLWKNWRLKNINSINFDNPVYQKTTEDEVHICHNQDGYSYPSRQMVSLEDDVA
UniProt Q9UHA4, whole entry, looked up: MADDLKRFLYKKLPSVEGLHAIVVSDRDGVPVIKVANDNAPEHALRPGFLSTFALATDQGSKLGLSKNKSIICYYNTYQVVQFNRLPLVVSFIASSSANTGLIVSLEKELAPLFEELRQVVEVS

Tests used:
Experiment in all cases: log2 fold change, soluble protein after heating vs DMSO (PISA); higher = thermal stabilisation; K562 cells, 10 uM, 30 min; active = over 0.2 and 3.5 SD of the protein, either way, in both replicates (recomputed)
IRAK-1-4 Inhibitor I = compound: C1COCCN1CCN2C3=CC=CC=C3N=C2NC(=O)C4=CC(=CC=C4)[N+](=O)[O-] [IRAK-1-4 Inhibitor I]
Summary of the method: (§1)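 Values are thermal stability changes relative to control samples and are taken from duplicates. They are stated as log2 fold changes. Before quantification by TMTpro 16plex LC-MS/MS with equalised channel sums, K562 cells at 2×10^6 cells/mL were treated with 10 μM compound for 30 min, heated in aliquots for 3 min across 48°C-58°C, pooled, extracted in PBS with 0.5% NP-40 at 4°C, and centrifuged at 21,000xg for 90 min to give the soluble supernatant.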

ibrutinib = compound: C=CC(=O)N1CCC[C@@H](n2nc(-c3ccc(Oc4ccccc4)cc3)c3c(N)ncnc32)C1 [ibrutinib]
Summary of the method: as §1

[1] = compound: CC(=O)c1cnc2ccc(-c3cc(Cl)c(O)c(Cl)c3)nc2c1N[C@H]1CC[C@H](CN(C)C)CC1
Summary of the method: as §1

ralimetinib = compound: CC(C)(C)Cn1c(N)nc2ccc(-c3[nH]c(C(C)(C)C)nc3-c3ccc(F)cc3)nc21 [ralimetinib]
Summary of the method: as §1

[2] = compound: CC(C)(O)CC(=O)NCCn1ccc2ncnc(Nc3ccc(Oc4cccc(C(F)(F)F)c4)c(Cl)c3)c21
Summary of the method: as §1

[3] = compound: CC(C)C1=C2N=C(C=C(N2N=C1)NCC3=CC=CC=C3)NCCCCCCN
Summary of the method: as §1

[4] = compound: CC(C)C[C@@H](C=O)NC(=O)[C@H](CC(C)C)NC(=O)[C@H](CC(C)C)NC(=O)OCc1ccccc1
Summary of the method: as §1

pinometostat = compound: CC(C)N(C[C@H]1O[C@@H](n2cnc3c(N)ncnc32)[C@H](O)[C@@H]1O)[C@H]1C[C@@H](CCc2nc3cc(C(C)(C)C)ccc3[nH]2)C1 [pinometostat]
Summary of the method: as §1

[5] = compound: CC1=C(C(CC(=O)N1)C2=CC=C(C=C2)C(F)(F)F)C(=O)NC3=C(C=C4C(=C3)C=NN4)F
Summary of the method: as §1

[6] = compound: CC1=C(C2=C(C=C1)C(=O)C3=CC=CC=C3N2CCCN)C
Summary of the method: as §1

Measured: log2 fold change

LAMTOR2 (UniProt Q9Y2Q5)
inactive: IRAK-1-4 Inhibitor I 0.058 | ibrutinib 0.015 | [1] -0.138 | ralimetinib -0.007 | [2] -0.038 | [3] -0.182 | [4] 0.028 | pinometostat 0.116 | [5] 0.091 | [6] 0.037

KTI12 (UniProt Q96EK9)
inactive: IRAK-1-4 Inhibitor I -0.068 | ibrutinib -0.042 | [1] 0.013 | ralimetinib 0.032 | [2] -0.144 | [3] -0.109 | [4] 0.025 | pinometostat 0.05 | [5] 0.03 | [6] 0.099

LRRC40 (UniProt Q9H9A6)
inactive: IRAK-1-4 Inhibitor I -0.017 | ibrutinib -0.023 | [1] -0.064 | ralimetinib 0.038 | [2] -0.109 | [3] -0.222 | [4] 0.013 | pinometostat 0.102 | [5] 0.003 | [6] 0.07

LMNB2 (UniProt Q03252)
active: [1] -0.214
inactive: IRAK-1-4 Inhibitor I -0.026 | ibrutinib -0.017 | ralimetinib -0.018 | [2] 0.052 | [3] -0.093 | [4] 0.03 | pinometostat 0.011 | [6] -0.022

LIMD1 (UniProt Q9UGP4)
inactive: IRAK-1-4 Inhibitor I 0.03 | ibrutinib 0.033 | [1] -0.008 | ralimetinib 0.035 | [2] -0.035 | [3] 0.044 | [4] -0.072 | pinometostat 0.016 | [6] -0.032

LMBRD2 (UniProt Q68DH5)
active: [3] -0.244
inactive: IRAK-1-4 Inhibitor I 0.14 | ibrutinib -0.034 | [1] 0.034 | ralimetinib -0.016 | [2] -0.021 | [4] -0.093 | pinometostat 0.037 | [6] 0.012

LCP2 (UniProt Q13094)
inactive: IRAK-1-4 Inhibitor I -0.046 | ibrutinib 0 | [1] -0.14 | ralimetinib -0.009 | [2] -0.129 | [3] 0.025 | [4] 0.011 | pinometostat 0.06 | [6] 0.025

Reprinted at random: 2 records from the list, in no set order.
LCP2 (UniProt Q13094)
inactive: IRAK-1-4 Inhibitor I -0.046 | ibrutinib 0 | [1] -0.14 | ralimetinib -0.009 | [2] -0.129 | [3] 0.025 | [4] 0.011 | pinometostat 0.06 | [6] 0.025

LIMD1 (UniProt Q9UGP4)
inactive: IRAK-1-4 Inhibitor I 0.03 | ibrutinib 0.033 | [1] -0.008 | ralimetinib 0.035 | [2] -0.035 | [3] 0.044 | [4] -0.072 | pinometostat 0.016 | [6] -0.032

(continued)

LENG8 (UniProt Q96PV6)
active: [3] -0.646
inactive: IRAK-1-4 Inhibitor I -0.122 | ibrutinib 0 | [1] -0.173 | ralimetinib -0.13 | [2] -0.389 | [4] 0.107 | pinometostat -0.071 | [6] 0.15

L1RE1 (UniProt Q9UN81)
inactive: IRAK-1-4 Inhibitor I -0.096 | ibrutinib -0.07 | [1] -0.122 | ralimetinib 0.07 | [2] -0.029 | [3] 0.009 | [4] 0.156 | pinometostat 0.108 | [5] -0.158 | [6] -0.176

LMAN1 (UniProt P49257)
inactive: IRAK-1-4 Inhibitor I -0.017 | ibrutinib -0.024 | [1] -0.017 | ralimetinib -0.019 | [2] -0.058 | [3] -0.084 | [4] -0.006 | pinometostat 0.02 | [5] 0.011 | [6] -0.006

LRRC47 (UniProt Q8N1G4)
inactive: IRAK-1-4 Inhibitor I 0.027 | ibrutinib -0.006 | [1] 0.008 | ralimetinib -0.031 | [2] -0.067 | [3] -0.033 | [4] -0.043 | pinometostat -0.042 | [5] -0.033 | [6] -0.039

KYNU (UniProt Q16719)
inactive: IRAK-1-4 Inhibitor I 0.034 | ibrutinib -0.023 | [1] -0.015 | ralimetinib -0.029 | [2] -0.105 | [3] 0.083 | [4] 0.032 | pinometostat 0.001 | [5] 0.028 | [6] 0.043

LRBA (UniProt P50851)
inactive: IRAK-1-4 Inhibitor I 0.015 | ibrutinib -0.02 | [1] -0.006 | ralimetinib -0.023 | [2] -0.059 | [3] -0.091 | [4] 0.005 | pinometostat 0.008 | [6] -0.004

LDLR (UniProt P01130)
inactive: IRAK-1-4 Inhibitor I 0.03 | ibrutinib -0.015 | [1] -0.106 | ralimetinib -0.025 | [2] 0.072 | [3] -0.009 | [4] 0.171 | pinometostat -0.011 | [6] -0.058

LAMTOR3 (UniProt Q9UHA4)
inactive: IRAK-1-4 Inhibitor I -0.004 | ibrutinib 0.018 | [1] -0.19 | ralimetinib -0.025 | [2] 0.112 | [3] -0.259 | [4] 0.054 | pinometostat 0.032 | [5] 0.058 | [6] -0.008

LNPEP (UniProt Q9UIQ6)
inactive: IRAK-1-4 Inhibitor I 0.015 | ibrutinib 0.021 | [1] -0.021 | ralimetinib 0.005 | [2] -0.02 | [3] 0.014 | [4] 0 | pinometostat -0.018 | [6] 0.016

LIMA1 isoform 4 (UniProt Q9UHB6)
active: [1] -0.267
inactive: IRAK-1-4 Inhibitor I -0.031 | ibrutinib 0.033 | ralimetinib 0.011 | [2] 0.114 | [3] 0.206 | [4] -0.03 | pinometostat 0.006 | [6] 0.049

LRP8 (UniProt E9PP15)
inactive: IRAK-1-4 Inhibitor I 0.26 | ibrutinib 0.114 | [1] 0.073 | ralimetinib -0.188 | [2] -0.064 | [3] 0.105 | [4] 0.209 | pinometostat -0.141 | [6] -0.065

LIN37 (UniProt Q96GY3)
inactive: IRAK-1-4 Inhibitor I 0.005 | [1] 0 | [3] 0.411 | pinometostat -0.034

LAMP2 isoform 2 (UniProt P13473)
inactive: IRAK-1-4 Inhibitor I 0.127 | ibrutinib -0.007 | [1] 0.012 | [2] 0.115 | pinometostat -0.026 | [6] -0.078
active: [3] -0.713

LRCH4 (UniProt O75427)
inactive: IRAK-1-4 Inhibitor I -0.069 | ralimetinib -0.011 | [2] 0.083 | [4] 0.126 | pinometostat 0.223

LRFN1 (UniProt Q9P244)
inactive: IRAK-1-4 Inhibitor I 0.105 | ibrutinib -0.018 | ralimetinib -0.009 | [2] 0.073 | [3] 0.107 | [4] 0.061 | pinometostat 0.029 | [6] 0.008

LRP10 (UniProt Q7Z4F1)
inactive: IRAK-1-4 Inhibitor I -0.194 | ibrutinib 0.048 | [1] -0.061 | ralimetinib -0.115 | [2] -0.032 | [4] 0.389 | pinometostat 0.112 | [5] 0.007

LAS1L (UniProt Q9Y4W2)
inactive: IRAK-1-4 Inhibitor I -0.213 | ibrutinib -0.278 | [1] 0.213 | ralimetinib 0.163 | [2] 0.027 | [4] -0.279 | pinometostat 0.185 | [6] -0.166

LNPK (UniProt Q9C0E8)
inactive: IRAK-1-4 Inhibitor I 0.041 | ibrutinib 0.013 | [1] 0.004 | ralimetinib -0.019 | [2] 0.016 | [3] 0.05 | [4] -0.011 | pinometostat -0.01 | [6] -0.035

LIMS1 (UniProt P48059)
inactive: IRAK-1-4 Inhibitor I 0.028 | ibrutinib -0.014 | pinometostat -0.156

LPIN1 isoform 7 (UniProt Q14693)
inactive: IRAK-1-4 Inhibitor I 0.035 | ibrutinib 0.029 | ralimetinib 0.016 | [2] -0.033 | [3] -0.054 | [4] 0.046 | pinometostat 0.082 | [6] 0.006
active: [1] -0.379
